PubChem BioAssay AID1508597 – Cure First | 2020

Purpose: 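Knock-downs altering ovarian cancer cell survival with or without PARP inhibitor rucaparib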 (primary screen)
Cell system: human ovarian carcinoma lines grown from tumours: OCI-P5x (papillary serous) and OCI-C5x (clear cell)
Reagent: siRNA pool against human genes, 1.25 pmol siRNA per well
Timing: 72 h or 96 h, depending on the cell culture
Conditions: rucaparib 20 µM (about IC30) or vehicle, present until read-out
Rucaparib or vehicle: Vehicle
Cell line: OCI-C5x (clear cell)
Measured: 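ATP luminescence measured at 72 or 96 h according to the culture, then normalised and expressed as percent viability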
Reading the numbers: viability, normalised: higher = more viable cells remaining
Hit rule: 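Active when normalised viability falls below 80 percent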
Calls: active = viability under 80%; inactive = viability 80% or more
This is an unselected part of the about 2,100 reagents, under one of the conditions tested. 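Calls flag viability under 80% in either arm, not effects specific to rucaparib; the reference for percent is not stated.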 Unmarked entries are inactive. Some reagents were tested in more than one well and are listed for each. No sequences are given here. Not stated in the record: the 100% reference.

The first 2 entries, ahead of the listing:
gene symbol	technical replicate	viability, normalised (%)
USP22 (ubiquitin specific peptidase 22)	1	49.6 (active)
USP22 (ubiquitin specific peptidase 22)	2	58.9 (active)

Main list, repeating the preview:
gene symbol	technical replicate	viability, normalised (%)
USP22 (ubiquitin specific peptidase 22)	1	49.6 (active)
USP22 (ubiquitin specific peptidase 22)	2	58.9 (active)
USP22 (ubiquitin specific peptidase 22)	3	61.8 (active)
MLLT10 (MLLT10 histone lysine methyltransferase DOT1L cofactor)	1	40.3 (active)
MLLT10 (MLLT10 histone lysine methyltransferase DOT1L cofactor)	2	51.7 (active)
MLLT10 (MLLT10 histone lysine methyltransferase DOT1L cofactor)	3	67.4 (active)
UNC93B1 (unc-93B1 regulator of TLR signaling)	1	62.4 (active)
UNC93B1 (unc-93B1 regulator of TLR signaling)	2	66.3 (active)
UNC93B1 (unc-93B1 regulator of TLR signaling)	3	38.2 (active)
DHX36 (DEAH-box helicase 36)	1	43.7 (active)
DHX36 (DEAH-box helicase 36)	2	56 (active)
DHX36 (DEAH-box helicase 36)	3	52.4 (active)
MSH6 (mutS homolog 6)	1	54.3 (active)
MSH6 (mutS homolog 6)	1	73.4 (active)
MSH6 (mutS homolog 6)	2	61.5 (active)
MSH6 (mutS homolog 6)	2	79.5 (active)
MSH6 (mutS homolog 6)	3	46.5 (active)
MSH6 (mutS homolog 6)	3	62.6 (active)
MTA3 (metastasis associated 1 family member 3)	1	53.8 (active)
MTA3 (metastasis associated 1 family member 3)	2	60.8 (active)
MTA3 (metastasis associated 1 family member 3)	3	58.6 (active)
UHRF1 (ubiquitin like with PHD and ring finger domains 1)	1	49.6 (active)
UHRF1 (ubiquitin like with PHD and ring finger domains 1)	1	35.8 (active)
UHRF1 (ubiquitin like with PHD and ring finger domains 1)	2	63 (active)
UHRF1 (ubiquitin like with PHD and ring finger domains 1)	2	47.8 (active)
UHRF1 (ubiquitin like with PHD and ring finger domains 1)	3	52.7 (active)
UHRF1 (ubiquitin like with PHD and ring finger domains 1)	3	47.3 (active)
